Assay results: publication PMC4847003 (International Journal for Parasitology: Drugs and Drug …, 2015)
Counter-ions that a name gives are not always drawn.

How the values were obtained:
[1] = tested on: T. cruzi trypomastigotes; experiment: Trypomastigote viability assay; format: cell-based, Trypanosoma cruzi Tulahuen strain
[2] = Host cell number in the same well of the amastigote image-based assay; set-up: species or system mouse; details: mouse, 3T3 host cells infected with T. cruzi
[3] = tested on: T. cruzi; details: ref Planer et al., 2014; cited from earlier work
[4] = tested on: 3T3 host cells; experiment: Host cell number in the same well of the amastigote image-based assay; set-up: species or system mouse; details: 3T3 IC50 or highest dose tested / amastigote IC50

| Structure (SMILES) | Trypomastigote activity, % at highest dose ([1]; at 25.5 μM, library DMSO stock) | Trypomastigote activity, % at highest dose ([1]; at […], solid sample) | cytotoxicity at 48 h, 18.3 µM [2] | activity in an in vivo model of acute infection [3] | SI (3T3) ([4]; library DMSO stock) | SI (3T3) ([4]; solid sample) |
| --- | --- | --- | --- | --- | --- | --- |
| CN1CCC[C@@H]1CCO[C@](C)(c1ccccc1)c1ccc(Cl)cc1 [Clemastine Fumarate, clemastine fumarate, reference compound] | 80% at 25.5 μM | 48% at 21.6 μM | 48% | failed to show activity | – | – |
| Clc1ccccc1C(c1ccccc1)(c1ccccc1)n1ccnc1 [Clotrimrazole HCl, clotrimazole] | – | – | – | – | >86.84 | >107.65 |
